Values from PubChem BioAssay AID1259254 (NCATS, 2017).
Purpose: 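Finding genes that stop cells copying their DNA twice in one cycle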 (primary screen). Cell system: human HCT116 colorectal cancer cells. Reagents: single siRNA against human genes. Duration: 3 days. Measured: 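Nuclei stained with Hoechst and imaged; cell-cycle phase assigned by DNA content; G2 share scaled per plate, non-targeting siRNA 0%, GMNN siRNA 100%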. Direction: G2 robust z-score: higher = more G2 cells, more excess DNA replication. Active means: 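An siRNA counts as active if its G2 robust z-score lies at least 5 MADs above the screen median; here such calls match roughly 38% of GMNN control or more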.
The whole screen tested about 59,000 reagents; below is a part drawn at random. About 1,550 of all reagents (2.6%) were called active. 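G2 share is only a proxy for re-replication; each gene was hit by three separate siRNAs, and active genes were retested.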 The numbers tell different reagents against one gene apart. Not all columns of the deposit are shown. The record does not give: the amount of reagent.

CFAP54 (cilia and flagella associated protein 54) #1 — G2 robust z-score: 0.232; call: inactive
CFAP54 (cilia and flagella associated protein 54) #2 — G2 robust z-score: 0.763; call: inactive
CFAP54 (cilia and flagella associated protein 54) #3 — G2 robust z-score: -0.147; call: inactive
CFAP54 (cilia and flagella associated protein 54) #4 — G2 robust z-score: -0.429; call: inactive
CFAP54 (cilia and flagella associated protein 54) #5 — G2 robust z-score: 0.237; call: inactive
CFAP54 (cilia and flagella associated protein 54) #6 — G2 robust z-score: -0.137; call: inactive
CFAP54 (cilia and flagella associated protein 54) #7 — G2 robust z-score: -0.0648; call: inactive
CFAP54 (cilia and flagella associated protein 54) #8 — G2 robust z-score: 0.655; call: inactive
CFAP54 (cilia and flagella associated protein 54) #9 — G2 robust z-score: 0.81; call: inactive
RPL29P32 (ribosomal protein L29 pseudogene 32) #1 — G2 robust z-score: 1.72; call: inactive
RPL29P32 (ribosomal protein L29 pseudogene 32) #2 — G2 robust z-score: -0.421; call: inactive
RPL29P32 (ribosomal protein L29 pseudogene 32) #3 — G2 robust z-score: -0.0043; call: inactive
